# In all, about 410,000 compounds went through this assay and about 18,000 (4.4%) were called active. This list was built around the results that the source calls inconclusive (neither active nor inactive); the mix of calls is not that of the screen. Cut-off read from the data, not from the text of the source: active = activity change below about -60%; inconclusive = no clear call, values can overlap the other calls; inactive = above about -39%.
# Assay: qHTS Assay for inhibitors of the human cytomegalovirus (HCMV)
# Conditions: HFF cells, HCMV-luciferase reporter, 72 h; at 57.5 µM; hits give low values
# Method in brief: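 Screen run at 2 compound doses on HFFs infected with reporter HCMV, MOI 1 PFU/cell. Luciferase activity from cell lysates at 72 h post infection gave inhibition relative to buffer-only and Salinomycin wells.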
# % is set by controls: 0 for no effect and ±100 for the full control effect.
row,Structure (SMILES),"activity change, negative = inhibition"
1,Cn1ccnc1C(O)c1cc(C(C)(C)C)c(O)c(C(C)(C)C)c1 (stereo not given),inconclusive: -51.9%
2,CCCc1ccc(NS(=O)(=O)c2c(C)oc(C)c2C(=O)OC)cc1,inactive: 13.4%
3,Cn1c(=O)c2cc(C(=O)NC3CCCCCC3)sc2c2ccccc21,active: -80.9%
4,OCCCCNCc1ccc(OCc2ccccc2Cl)cc1,inconclusive: -49.1%
5,O=C(Nc1ccc(N=Nc2ccccc2)cc1)c1ccccc1Cl,inconclusive: -47%
6,C=C(C)Cn1c(C)cc(C)c(S(=O)(=O)c2ccc(C)cc2)c1=O,inconclusive: -46.2%
7,CC1C(=O)C(C)(C)C(=O)OC1c1ccc([N+](=O)[O-])cc1 (stereo not given),active: -104%
8,COC(=O)[C@@H]1[C@@H](CO)[C@@H]2Cn3c(ccc(Br)c3=O)[C@H]1N2S(=O)(=O)c1cccc(C)c1,inactive: -1.72%
9,CC(OC(=O)CN1C(=O)C2CCCCC2C1=O)C(=O)Nc1ncc(Cl)cc1Cl (stereo not given),inactive: 22.5%
10,Cc1noc(/C=C/c2cccs2)c1S(=O)(=O)N1CCC(C(=O)NCc2ccc(Cl)cc2)CC1,inconclusive: -48.4%
11,CC1CCN(S(=O)(=O)c2ccc(C(=O)Nc3nnc(C4=COCCO4)o3)cc2)CC1,active: -70.3%
12,C=CC[n+]1c(-c2ccc(OCC)cc2)csc1NNC(=O)Nc1ccccc1,active: -87.9%
13,CC1c2cc3c(cc2CCN1C(=O)c1cccc(F)c1)OCCCO3 (stereo not given),inconclusive: -54.8%
14,COc1ccc(-c2nnc(SCCC(=O)O)n2C)cc1OC,inconclusive: -44.9%
15,CN1CCN(C(=O)Cn2ncc3c4ccccc4n(Cc4ccc(F)cc4)c3c2=O)CC1,inactive: -15%
16,CCOc1ccc(Br)cc1/C(C)=N\NC1=NCCN1,inconclusive: -58.3%
17,Cc1ccc(C)c(S(=O)(=O)N2CCN(CC(=O)Nc3sccc3C#N)CC2)c1,inconclusive: -43.9%
18,O=C(Nc1ccc(OCc2ccccc2)cc1)c1cccnc1,inactive: 9.49%
19,COc1ccc(OC)c(CN(CC(C)C)S(=O)(=O)c2ccccc2Br)c1,inactive: -34.8%
20,CCOc1ccc2nc(NC(=O)CSc3nnc(-c4ccncc4)n3CC3CCCO3)sc2c1 (stereo not given),inactive: 12.9%
21,CCCNC(=O)C1(C)CCN(Cc2cc(C(F)(F)F)ccc2Cl)C1 (stereo not given),inconclusive: -52.7%
22,CC(C)N(C(=O)Cn1cc(SCC(N)=O)c2ccccc21)C(C)C,inconclusive: -53.8%

# A second format for 2 compounds above:
row	Structure (SMILES)	activity change, negative = inhibition
20	CCOc1ccc2nc(NC(=O)CSc3nnc(-c4ccncc4)n3CC3CCCO3)sc2c1 (stereo not given)	inactive: 12.9%
21	CCCNC(=O)C1(C)CCN(Cc2cc(C(F)(F)F)ccc2Cl)C1 (stereo not given)	inconclusive: -52.7%

# Further structures follow.

row,Structure (SMILES),"activity change, negative = inhibition"
1,CC(NC(=O)C(C)N1CCN(Cc2ccccc2)CC1)c1ccccc1 (stereo not given),inconclusive: -40%
2,O=C(Nc1cccc(Cl)c1)Nc1nnc(CC2=CCCCC2)s1,active: -98.4%
3,COc1ccc(S(=O)(=O)N2CCC(C(=O)NCCc3ccc(OC)c(OC)c3)CC2)cc1,inactive: -5.1%
4,Cc1ccc(C2=NCC(C)n3nc4cc(C(F)(F)F)ccc4c32)cc1 (stereo not given),inactive: 58.7%
5,O=c1c2ccccc2nnn1CSc1nc2ccccc2c(=O)n1Cc1ccco1,inconclusive: -52.3%
6,COc1ccc(NC(=O)C2(C)CCN2CC2CCCCC2)cc1OC (stereo not given),inactive: -5.24%
7,C=CCn1c(SCC(=O)c2[nH]c(C)c(C(=O)OCC)c2C)nc2scc(-c3ccc(OC)cc3)c2c1=O,inconclusive: -53.6%
8,NC(=O)C1CCN(S(=O)(=O)c2ccc3c(c2)OCCO3)CC1,inconclusive: -43.2%
9,CC1CCC/C(=N\NC(=O)COc2ccccc2Cl)C1 (stereo not given),inconclusive: -44.5%
10,Nc1nc(CCl)nc(Nc2ccc3ccccc3c2)n1,active: -93.1%
11,COC(=O)[C@@]12C[C@@H](CC(=O)N3CCCCC3)C(=O)N(Cc3ccccc3)C1=CCC(C)(C)C2,inconclusive: -40.6%
12,Cc1ccc(C)c(N2CCN(C(=O)c3cc(S(=O)(=O)N4CCOCC4)ccc3F)CC2)c1,inconclusive: -46.8%
13,CS(=O)(=O)c1ccc(NC(=O)c2cccc(S(=O)(=O)N3CCN(Cc4ccccc4)CC3)c2)cc1,inconclusive: -58.6%
14,COc1ccc(CNC(=O)c2cnc3sc(N4CCCC4)nn3c2=O)c(OC)c1,inconclusive: -47.3%
15,O=[N+]([O-])c1cccc(Cl)c1CSc1ccccn1,inconclusive: -43.4%
16,CCOc1ccccc1Nc1nc(N2CCCC2)nc(N2CCOCC2)n1,inconclusive: -54.4%
17,O=C(CCl)N(c1ccccc1)C1CCS(=O)(=O)C1 (stereo not given),active: -103%
18,COc1ccc(C(CNC(=O)c2ccc(NS(=O)(=O)c3ccc(F)c(C)c3)cc2)N2CCCC2)cc1 (stereo not given),inactive: -14.6%
19,CCOC1=C2[C@@H](CN(S(=O)(=O)c3ccccc3C)[C@H]2c2ccc(Cl)cc2)[C@H]2C(=O)N(C3CCCCC3)C(=O)[C@H]2C1,inconclusive: -41%
20,O=c1c2ccccc2nc2c3ccccc3c(NCc3cccnc3)nn12,inconclusive: -45.9%
21,FC(F)(F)c1cccc(N2CCN(CC3CC4C=CC3C4)CC2)c1 (stereo not given),inconclusive: -43.5%
22,Cc1cccc(NC(=O)c2cc3c(s2)-c2c(C)cccc2OC3)n1,inconclusive: -46.7%

# Fetched by compound from the list above:
row,Structure (SMILES),"activity change, negative = inhibition"
9,CC(OC(=O)CN1C(=O)C2CCCCC2C1=O)C(=O)Nc1ncc(Cl)cc1Cl (stereo not given),inactive: 22.5%
16,CCOc1ccc(Br)cc1/C(C)=N\NC1=NCCN1,inconclusive: -58.3%
20,O=c1c2ccccc2nc2c3ccccc3c(NCc3cccnc3)nn12,inconclusive: -45.9%

# (continued)

row,Structure (SMILES),"activity change, negative = inhibition"
1,Cc1ccc(Nc2nnc(SCC(=O)Nc3cccc(S(=O)(=O)N4CCCCC4)c3)s2)cc1,inconclusive: -41.8%
2,Cc1ccc(C(=O)c2cn(Cc3ccccc3C)c3nc(C)ccc3c2=O)cc1,inconclusive: -54.1%
3,COc1ccc2cc(C(=O)N/N=C/c3sc4ccccc4c3O)ccc2c1,active: -98.1%
4,Nc1ccc(Oc2ccc(Br)cc2)cc1,inactive: -6.11%
5,CN1c2ccccc2C2(C)CCCC3=Cc4cccc([N+](=O)[O-])c4OC312 (stereo not given),inconclusive: -43.6%
6,O=c1[nH]c2ccc(NCc3ccc(-c4cccc(Cl)c4)o3)cc2[nH]1,active: -60.6%
7,Cn1cnc(S(=O)(=O)N2CCN(c3cccc(Cl)c3)CC2)c1,inconclusive: -41.9%
8,O=C(C1CCCN(Cc2cccs2)C1)N1CCCCCC1 (stereo not given),inconclusive: -50.9%
9,COCC(C)NC(=O)CSc1ncnc2sc(-c3ccccc3)cc12 (stereo not given),inactive: -1.8%
10,Cc1ccc([C@H]2C[C@H](n3cc(C4CC4)nn3)[C@@H](O)CN2C(=O)C2CCCCC2)cc1,inactive: -27.8%
11,COC(=O)c1ccc(NS(=O)(=O)c2cccc3cccnc23)cc1,inactive: -26.2%
12,Clc1ccccc1Cc1noc(CN2CCCCC2CCc2ccccn2)n1 (stereo not given),inconclusive: -45.3%
13,Cc1ccc(O)c(NC(=O)CSc2n[nH]c(-c3ccccc3)n2)c1,active: -82.9%
14,O=C(NCCc1c[nH]c2ccccc12)c1c(Cl)nc2sccn12,inconclusive: -42.9%
15,Cc1cc(S(=O)(=O)NCc2ccccn2)c(Cl)cc1Cl,inconclusive: -41.9%
16,O=[N+]([O-])c1ccc(-n2cnc3ccccc32)c([N+](=O)[O-])c1,inconclusive: -45.8%
17,CC1=CC(C)=Nc2ccccc2N1,inactive: 67.6%
18,COc1cccc(/C=C/C(=O)Nc2ccc3nc4n(c(=O)c3c2)CCCC4)c1OC,inconclusive: -56.1%
19,CCOc1cccc(-c2nn3c(-c4cc(C)[nH]n4)nnc3s2)c1,inactive: -15.9%
20,O=c1c2c(-c3ccccc3)csc2nc2c3ccccc3c(NCCN3CCOCC3)nn12,inconclusive: -54.5%
21,COC(=O)C1=C(c2ccc(Cl)c(C(F)(F)F)c2)C[C@@H]2CC[C@H]1N2C(=O)NCCO,inactive: 42.7%
22,CCN(CC)c1ccc(/C=N/Nc2nc(C)cc(C)n2)cc1,inconclusive: -57.9%

row,Structure (SMILES),"activity change, negative = inhibition"
1,CC[C@H](C)[C@@H]1NC(=O)CNC(=O)c2csc(n2)[C@H](C(C)(C)O)OC(=O)C(C)(C)[C@H](CCCC(C)(Cl)Cl)OC(=O)c2csc1n2,active: -78.8%
2,Cc1cccc(N(C)C(=O)CN2C(=O)COc3ccc(S(=O)(=O)N4CCCCCC4)cc32)c1,inconclusive: -55.6%
3,COC(=O)c1ccc(Oc2nc(C(N)=O)cc(-c3ccccc3)n2)cc1,inactive: -27.1%
4,CCOc1cc(/C=N\Nc2ccc([N+](=O)[O-])cc2)ccc1OCC(=O)Nc1ccc(C)c(C)c1,inconclusive: -45.1%
5,O=S(=O)(c1ccc(Br)cc1)N1CCN(c2cc(-c3ccccc3)nc3ncnn23)CC1,inconclusive: -49.5%
6,Cc1ccc(-n2cc(-c3ccccc3)c3c(NC4CCCC4)ncnc32)cc1,inconclusive: -44.1%
7,Cc1n[nH]c(C)c1S(=O)(=O)N1CCCCCC1,inactive: -2.05%
8,O=S(=O)(c1ccc(Br)cc1)c1nc(-c2ccccc2)oc1NCc1cccnc1,inactive: -3.8%
9,CC(C)(C)n1nnnc1C(c1ccccc1)N1CCN(C(=O)c2ccco2)CC1 (stereo not given),inconclusive: -43%
10,O=C(c1ccco1)N1CCN(Cc2nnnn2CC2CCCO2)CC1 (stereo not given),inactive: 15.4%
11,Cc1nn2c(=O)cc(CSCC(=O)Nc3ccccc3Cl)nc2s1,inconclusive: -49.1%
12,CCc1noc(C)c1C(=O)N1CCCSC1=Nc1ccccc1Cl,inconclusive: -48.4%
13,O=C(c1cn(Cc2ccccc2)nc1-c1ccccc1)N1CCN(c2ccccn2)CC1,inactive: -16.1%
14,COc1ccc(NS(=O)(=O)c2ccc(-n3nnc4ccccc43)c([N+](=O)[O-])c2)cc1,active: -62.7%
15,CCOC(=O)C1=C[C@@H](C(C)(C)C)N(S(=O)(=O)c2ccc(C)cc2)[C@H]1c1cccc(Cl)c1,active: -87.9%
16,Cn1c(=O)c(C(=O)NNC(=O)c2ccc(Br)cc2)c(O)c2ccccc21,inactive: -17.5%
17,C=C(C)CSc1cc(C)c(C#N)c2nc3ccccc3n12,active: -74.8%
18,Cc1cc(C)c2c(CC(=O)Nc3ccc(S(=O)(=O)N4CCCC(C)C4)cc3)coc2c1 (stereo not given),inactive: -5.82%
19,Nc1nc(Nc2cccc(C(F)(F)F)c2)sc1C(=O)c1ccccc1,inconclusive: -41.5%
